In article PMC3574160:
Results are given in words; binding and its absence hold for the method and conditions named. Sequences can lack the tags named with a protein.

Molecular target: T1, AD-01, peptide derivative of FKBPL
T1 sequence (peptide): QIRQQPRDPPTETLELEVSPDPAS
Test: SPR; indirect competitive BIACORE Q assay: AD-01 immobilised on CM5 chip; anti-AD-01 antibody (0.01 µg/ml) mixed with AD-01 in solution (0-1 µM) and immunopurified CD44 or recombinant EGFR; a partner of AD-01 in solution raises the antibody's binding to the chip; mIgG isotype eluate and buffer as controls; both purified

Q: With “recombinant human EGFR (from UniProt P00533 25-645) (receptor)” as the substance, how does the binding read?
A: no binding
